The chains behind the UniProt entries cited, without tags or fusion partners. Where a name states a change or a piece, a line headed by the entry shows the natural chain unless it says otherwise.
UniProt A8BPK1: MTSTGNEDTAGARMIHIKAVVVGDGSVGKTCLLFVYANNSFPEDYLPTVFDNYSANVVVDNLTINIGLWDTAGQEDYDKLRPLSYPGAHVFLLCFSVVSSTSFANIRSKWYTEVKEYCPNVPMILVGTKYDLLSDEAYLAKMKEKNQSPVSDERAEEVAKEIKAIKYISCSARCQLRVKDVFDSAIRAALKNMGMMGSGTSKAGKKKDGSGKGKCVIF
UniProt A8B4T8: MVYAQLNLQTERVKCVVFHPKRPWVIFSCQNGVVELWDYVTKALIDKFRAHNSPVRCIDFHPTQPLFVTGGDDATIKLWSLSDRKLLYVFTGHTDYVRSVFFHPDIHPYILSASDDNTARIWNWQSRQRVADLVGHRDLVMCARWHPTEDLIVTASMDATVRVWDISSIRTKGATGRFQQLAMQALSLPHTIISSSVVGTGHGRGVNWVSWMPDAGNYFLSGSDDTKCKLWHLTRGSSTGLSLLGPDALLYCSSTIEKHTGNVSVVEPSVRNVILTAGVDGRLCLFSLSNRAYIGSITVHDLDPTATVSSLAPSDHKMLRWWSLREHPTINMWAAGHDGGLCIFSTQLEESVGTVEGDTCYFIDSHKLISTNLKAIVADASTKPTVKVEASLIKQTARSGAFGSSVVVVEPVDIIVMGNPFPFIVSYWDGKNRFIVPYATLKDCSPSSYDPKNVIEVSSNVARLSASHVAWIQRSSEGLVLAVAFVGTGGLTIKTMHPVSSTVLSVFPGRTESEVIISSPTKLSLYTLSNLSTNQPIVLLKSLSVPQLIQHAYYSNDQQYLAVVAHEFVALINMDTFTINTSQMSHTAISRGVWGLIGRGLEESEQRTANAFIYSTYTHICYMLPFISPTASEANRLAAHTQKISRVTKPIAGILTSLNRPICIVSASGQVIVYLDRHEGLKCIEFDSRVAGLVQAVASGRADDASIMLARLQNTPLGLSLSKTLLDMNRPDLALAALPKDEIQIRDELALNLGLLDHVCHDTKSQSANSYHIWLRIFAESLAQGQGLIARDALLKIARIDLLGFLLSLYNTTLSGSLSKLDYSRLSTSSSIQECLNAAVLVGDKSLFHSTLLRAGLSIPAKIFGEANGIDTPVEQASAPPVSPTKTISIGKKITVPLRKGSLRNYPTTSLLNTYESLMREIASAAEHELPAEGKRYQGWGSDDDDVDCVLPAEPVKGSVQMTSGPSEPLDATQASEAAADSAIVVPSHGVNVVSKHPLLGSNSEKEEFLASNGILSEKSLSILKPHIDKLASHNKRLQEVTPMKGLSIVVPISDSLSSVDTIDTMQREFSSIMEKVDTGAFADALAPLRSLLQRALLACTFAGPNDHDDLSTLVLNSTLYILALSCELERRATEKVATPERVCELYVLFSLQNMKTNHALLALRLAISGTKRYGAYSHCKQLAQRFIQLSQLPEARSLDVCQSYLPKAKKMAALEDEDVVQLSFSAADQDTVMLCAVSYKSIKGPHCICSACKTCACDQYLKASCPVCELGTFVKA
UniProt A8BDQ0: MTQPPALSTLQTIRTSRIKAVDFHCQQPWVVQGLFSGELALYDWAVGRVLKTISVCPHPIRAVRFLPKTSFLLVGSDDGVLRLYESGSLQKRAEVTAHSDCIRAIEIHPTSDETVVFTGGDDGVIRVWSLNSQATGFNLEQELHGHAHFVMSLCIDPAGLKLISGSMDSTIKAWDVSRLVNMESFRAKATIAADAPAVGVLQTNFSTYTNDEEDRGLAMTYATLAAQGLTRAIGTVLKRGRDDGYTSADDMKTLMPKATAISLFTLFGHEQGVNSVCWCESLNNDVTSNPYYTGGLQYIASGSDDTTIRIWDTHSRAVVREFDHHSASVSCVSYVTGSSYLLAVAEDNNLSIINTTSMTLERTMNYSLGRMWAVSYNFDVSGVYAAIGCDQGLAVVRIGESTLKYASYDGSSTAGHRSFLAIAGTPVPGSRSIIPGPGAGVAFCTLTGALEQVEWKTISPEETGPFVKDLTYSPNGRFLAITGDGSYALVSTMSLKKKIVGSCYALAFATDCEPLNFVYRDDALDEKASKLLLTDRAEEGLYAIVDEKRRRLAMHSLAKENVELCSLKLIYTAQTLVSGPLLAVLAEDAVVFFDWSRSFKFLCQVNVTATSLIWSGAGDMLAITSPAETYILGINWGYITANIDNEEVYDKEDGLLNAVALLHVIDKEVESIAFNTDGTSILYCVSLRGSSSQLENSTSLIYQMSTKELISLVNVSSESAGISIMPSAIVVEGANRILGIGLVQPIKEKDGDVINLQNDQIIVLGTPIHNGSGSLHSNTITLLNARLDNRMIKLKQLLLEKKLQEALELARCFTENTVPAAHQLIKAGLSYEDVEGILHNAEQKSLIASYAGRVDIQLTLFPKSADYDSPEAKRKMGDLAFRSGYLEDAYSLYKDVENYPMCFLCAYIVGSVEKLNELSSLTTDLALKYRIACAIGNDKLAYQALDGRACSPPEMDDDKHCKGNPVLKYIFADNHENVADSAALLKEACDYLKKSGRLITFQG
UniProt A0A644F2H1: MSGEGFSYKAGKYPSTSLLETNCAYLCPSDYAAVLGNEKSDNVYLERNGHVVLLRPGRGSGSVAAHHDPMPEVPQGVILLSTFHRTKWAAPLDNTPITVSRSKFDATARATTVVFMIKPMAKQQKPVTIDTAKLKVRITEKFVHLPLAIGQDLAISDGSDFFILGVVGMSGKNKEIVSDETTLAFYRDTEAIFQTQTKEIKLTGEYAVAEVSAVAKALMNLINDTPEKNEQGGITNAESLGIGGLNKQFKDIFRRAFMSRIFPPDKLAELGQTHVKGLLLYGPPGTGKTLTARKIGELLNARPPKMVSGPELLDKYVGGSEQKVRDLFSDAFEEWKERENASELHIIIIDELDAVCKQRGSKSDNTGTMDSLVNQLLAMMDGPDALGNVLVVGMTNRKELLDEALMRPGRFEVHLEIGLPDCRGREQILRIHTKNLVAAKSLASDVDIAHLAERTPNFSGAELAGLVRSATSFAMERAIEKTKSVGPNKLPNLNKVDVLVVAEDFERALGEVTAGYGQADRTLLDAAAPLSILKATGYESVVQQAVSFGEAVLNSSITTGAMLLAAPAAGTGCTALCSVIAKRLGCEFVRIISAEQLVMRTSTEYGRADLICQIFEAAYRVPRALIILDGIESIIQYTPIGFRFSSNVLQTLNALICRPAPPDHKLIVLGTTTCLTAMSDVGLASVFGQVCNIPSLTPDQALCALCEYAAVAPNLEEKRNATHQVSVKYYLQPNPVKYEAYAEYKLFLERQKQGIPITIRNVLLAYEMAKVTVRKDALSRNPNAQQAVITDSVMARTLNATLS
UniProt E2RTZ2: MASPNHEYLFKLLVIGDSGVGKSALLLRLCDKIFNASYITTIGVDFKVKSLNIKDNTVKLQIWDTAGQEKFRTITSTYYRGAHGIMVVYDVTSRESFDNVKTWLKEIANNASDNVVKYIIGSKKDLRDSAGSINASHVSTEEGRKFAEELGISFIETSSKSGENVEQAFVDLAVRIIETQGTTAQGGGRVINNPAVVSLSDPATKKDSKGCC
UniProt E2RU17: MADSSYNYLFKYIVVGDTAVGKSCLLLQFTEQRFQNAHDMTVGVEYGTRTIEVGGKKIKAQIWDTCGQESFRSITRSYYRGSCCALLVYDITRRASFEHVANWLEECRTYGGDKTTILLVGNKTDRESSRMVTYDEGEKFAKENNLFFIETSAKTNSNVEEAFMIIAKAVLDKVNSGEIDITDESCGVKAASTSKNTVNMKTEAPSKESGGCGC
UniProt A0A644F713: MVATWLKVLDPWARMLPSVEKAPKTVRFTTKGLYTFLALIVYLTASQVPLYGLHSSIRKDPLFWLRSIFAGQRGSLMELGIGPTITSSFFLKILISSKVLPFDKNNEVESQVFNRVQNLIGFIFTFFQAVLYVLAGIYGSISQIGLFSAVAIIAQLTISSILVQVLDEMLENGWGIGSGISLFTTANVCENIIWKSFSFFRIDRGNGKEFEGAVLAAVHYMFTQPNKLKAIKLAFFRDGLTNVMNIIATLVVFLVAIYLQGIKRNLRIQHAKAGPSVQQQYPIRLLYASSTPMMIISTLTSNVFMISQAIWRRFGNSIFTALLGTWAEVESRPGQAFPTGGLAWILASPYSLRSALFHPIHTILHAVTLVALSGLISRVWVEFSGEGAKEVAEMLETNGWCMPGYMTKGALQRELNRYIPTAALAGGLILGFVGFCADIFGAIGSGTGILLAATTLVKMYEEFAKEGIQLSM
UniProt A0A644F5E3: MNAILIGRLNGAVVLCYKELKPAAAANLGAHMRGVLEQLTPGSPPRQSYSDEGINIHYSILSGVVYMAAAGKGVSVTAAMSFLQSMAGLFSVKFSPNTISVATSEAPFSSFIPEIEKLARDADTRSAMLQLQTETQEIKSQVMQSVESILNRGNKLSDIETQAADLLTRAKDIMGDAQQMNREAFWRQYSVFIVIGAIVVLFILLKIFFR
UniProt A8BAR6: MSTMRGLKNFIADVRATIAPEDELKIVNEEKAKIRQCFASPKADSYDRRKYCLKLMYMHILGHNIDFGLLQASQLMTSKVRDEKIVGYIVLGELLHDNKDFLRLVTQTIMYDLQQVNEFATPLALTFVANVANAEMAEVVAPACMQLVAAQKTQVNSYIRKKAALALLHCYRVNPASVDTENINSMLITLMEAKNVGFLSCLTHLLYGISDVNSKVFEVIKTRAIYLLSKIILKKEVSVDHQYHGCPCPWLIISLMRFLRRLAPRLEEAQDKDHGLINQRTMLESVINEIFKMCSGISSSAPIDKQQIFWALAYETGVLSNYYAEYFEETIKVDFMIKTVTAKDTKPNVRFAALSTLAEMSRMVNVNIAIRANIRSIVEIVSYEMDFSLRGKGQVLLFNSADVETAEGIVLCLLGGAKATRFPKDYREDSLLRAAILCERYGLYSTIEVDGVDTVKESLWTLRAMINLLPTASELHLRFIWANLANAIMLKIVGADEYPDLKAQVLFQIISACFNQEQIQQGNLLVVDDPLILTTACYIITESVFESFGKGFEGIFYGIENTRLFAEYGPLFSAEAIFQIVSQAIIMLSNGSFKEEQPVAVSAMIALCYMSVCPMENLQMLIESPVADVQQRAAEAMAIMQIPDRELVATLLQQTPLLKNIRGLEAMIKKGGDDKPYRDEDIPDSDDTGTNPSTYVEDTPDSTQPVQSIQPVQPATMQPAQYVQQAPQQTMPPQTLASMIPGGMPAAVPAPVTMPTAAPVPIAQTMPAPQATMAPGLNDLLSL

Results are given in words; binding and its absence hold for the method and conditions named. Binding seen in cells or lysates may run through a third protein. A yes stands for co-enrichment or nearness to the bait. Other partners may have been found.
What follows are substances tested against OneSTrEP-GlRac (Giardia lamblia) (UniProt A8BPK1) (assay: affinity purification with mass spectrometry; OS-GlRac lysates on Strep-Tactin beads, eluates by LC-MS/MS; trophozoites and encysting cells at 8 h p.i.e. (two-step protocol); triplicate; wild type cells as control for non-specific binding to the beads).
In the case of “GlCoatomer α subunit (from UniProt A8B4T8)”, the binding is reported as “binds”. “GlCoatomer β′ subunit (from UniProt A8BDQ0)” was tested, and the binding was “binds”. For GlNSF (from UniProt A0A644F2H1), the binding was “binds”. GlRab1a (from UniProt E2RTZ2) was tested, and the binding was “binds”. With GlRab2a (from UniProt E2RU17) the binding was “binds”. In the case of GlSec61-α (from UniProt A0A644F713), the binding is reported as “binds”. With Glv-SNARE (from UniProt A0A644F5E3) the binding was “binds”. With Glα-adaptin (from UniProt A8BAR6) the binding was “binds”.

Source: article PMC8111296
